Measured values reported in article PMC11172389.

Protein sequences, listed by entry. Tags and fused reporters are not part of them.
UniProt Q01815: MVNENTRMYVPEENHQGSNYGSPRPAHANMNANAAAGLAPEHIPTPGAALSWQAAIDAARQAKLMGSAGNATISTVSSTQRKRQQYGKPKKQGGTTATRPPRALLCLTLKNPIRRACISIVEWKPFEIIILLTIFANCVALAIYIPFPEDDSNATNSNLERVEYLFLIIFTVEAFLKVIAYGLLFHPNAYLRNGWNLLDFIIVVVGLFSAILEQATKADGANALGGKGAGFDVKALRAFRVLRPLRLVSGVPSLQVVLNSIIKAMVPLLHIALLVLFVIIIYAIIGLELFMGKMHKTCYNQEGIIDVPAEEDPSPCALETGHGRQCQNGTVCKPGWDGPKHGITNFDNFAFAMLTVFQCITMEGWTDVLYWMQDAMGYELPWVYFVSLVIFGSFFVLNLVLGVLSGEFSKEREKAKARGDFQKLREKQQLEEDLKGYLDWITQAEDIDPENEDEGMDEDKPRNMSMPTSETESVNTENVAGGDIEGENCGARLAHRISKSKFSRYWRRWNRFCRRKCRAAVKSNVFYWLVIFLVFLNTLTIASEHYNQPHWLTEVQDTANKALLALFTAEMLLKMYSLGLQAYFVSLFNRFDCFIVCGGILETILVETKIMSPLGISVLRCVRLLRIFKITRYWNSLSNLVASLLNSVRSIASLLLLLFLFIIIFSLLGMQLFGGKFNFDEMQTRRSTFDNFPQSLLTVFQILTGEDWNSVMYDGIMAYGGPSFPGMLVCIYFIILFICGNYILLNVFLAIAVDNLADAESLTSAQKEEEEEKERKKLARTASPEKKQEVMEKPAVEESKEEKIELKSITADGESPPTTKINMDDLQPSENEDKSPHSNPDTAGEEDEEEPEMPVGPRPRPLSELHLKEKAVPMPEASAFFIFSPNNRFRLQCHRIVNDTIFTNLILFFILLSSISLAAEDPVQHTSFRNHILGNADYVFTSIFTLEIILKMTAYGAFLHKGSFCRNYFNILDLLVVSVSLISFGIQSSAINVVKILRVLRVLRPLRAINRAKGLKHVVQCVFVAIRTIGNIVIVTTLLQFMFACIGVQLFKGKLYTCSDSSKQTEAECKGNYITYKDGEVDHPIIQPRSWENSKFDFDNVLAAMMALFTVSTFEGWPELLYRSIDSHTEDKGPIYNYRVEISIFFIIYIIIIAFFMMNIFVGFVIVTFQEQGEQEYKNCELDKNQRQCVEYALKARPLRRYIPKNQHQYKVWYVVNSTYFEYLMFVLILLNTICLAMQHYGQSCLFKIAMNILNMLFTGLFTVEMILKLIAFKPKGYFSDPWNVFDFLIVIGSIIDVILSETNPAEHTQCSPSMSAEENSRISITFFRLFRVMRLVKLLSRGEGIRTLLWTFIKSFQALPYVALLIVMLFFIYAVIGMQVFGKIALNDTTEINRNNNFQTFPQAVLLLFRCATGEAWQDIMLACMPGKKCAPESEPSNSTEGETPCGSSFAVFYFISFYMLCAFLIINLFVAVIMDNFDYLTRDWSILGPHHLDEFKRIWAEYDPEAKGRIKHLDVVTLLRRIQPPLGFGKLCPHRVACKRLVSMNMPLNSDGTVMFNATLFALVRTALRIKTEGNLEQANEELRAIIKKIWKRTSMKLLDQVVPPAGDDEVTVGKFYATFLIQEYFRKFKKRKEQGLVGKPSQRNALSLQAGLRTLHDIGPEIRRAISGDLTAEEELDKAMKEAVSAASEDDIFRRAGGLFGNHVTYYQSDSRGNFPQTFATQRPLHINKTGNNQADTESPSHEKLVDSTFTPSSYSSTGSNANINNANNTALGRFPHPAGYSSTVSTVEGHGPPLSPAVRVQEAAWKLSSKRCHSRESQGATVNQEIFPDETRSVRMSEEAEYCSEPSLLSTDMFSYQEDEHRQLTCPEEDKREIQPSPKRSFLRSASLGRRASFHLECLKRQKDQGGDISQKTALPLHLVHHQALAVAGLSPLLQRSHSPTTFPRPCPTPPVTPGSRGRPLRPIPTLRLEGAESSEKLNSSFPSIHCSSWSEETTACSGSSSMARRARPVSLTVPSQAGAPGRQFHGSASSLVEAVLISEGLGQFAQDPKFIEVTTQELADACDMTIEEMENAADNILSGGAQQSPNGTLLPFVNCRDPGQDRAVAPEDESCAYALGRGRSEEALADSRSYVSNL
UniProt Q99246: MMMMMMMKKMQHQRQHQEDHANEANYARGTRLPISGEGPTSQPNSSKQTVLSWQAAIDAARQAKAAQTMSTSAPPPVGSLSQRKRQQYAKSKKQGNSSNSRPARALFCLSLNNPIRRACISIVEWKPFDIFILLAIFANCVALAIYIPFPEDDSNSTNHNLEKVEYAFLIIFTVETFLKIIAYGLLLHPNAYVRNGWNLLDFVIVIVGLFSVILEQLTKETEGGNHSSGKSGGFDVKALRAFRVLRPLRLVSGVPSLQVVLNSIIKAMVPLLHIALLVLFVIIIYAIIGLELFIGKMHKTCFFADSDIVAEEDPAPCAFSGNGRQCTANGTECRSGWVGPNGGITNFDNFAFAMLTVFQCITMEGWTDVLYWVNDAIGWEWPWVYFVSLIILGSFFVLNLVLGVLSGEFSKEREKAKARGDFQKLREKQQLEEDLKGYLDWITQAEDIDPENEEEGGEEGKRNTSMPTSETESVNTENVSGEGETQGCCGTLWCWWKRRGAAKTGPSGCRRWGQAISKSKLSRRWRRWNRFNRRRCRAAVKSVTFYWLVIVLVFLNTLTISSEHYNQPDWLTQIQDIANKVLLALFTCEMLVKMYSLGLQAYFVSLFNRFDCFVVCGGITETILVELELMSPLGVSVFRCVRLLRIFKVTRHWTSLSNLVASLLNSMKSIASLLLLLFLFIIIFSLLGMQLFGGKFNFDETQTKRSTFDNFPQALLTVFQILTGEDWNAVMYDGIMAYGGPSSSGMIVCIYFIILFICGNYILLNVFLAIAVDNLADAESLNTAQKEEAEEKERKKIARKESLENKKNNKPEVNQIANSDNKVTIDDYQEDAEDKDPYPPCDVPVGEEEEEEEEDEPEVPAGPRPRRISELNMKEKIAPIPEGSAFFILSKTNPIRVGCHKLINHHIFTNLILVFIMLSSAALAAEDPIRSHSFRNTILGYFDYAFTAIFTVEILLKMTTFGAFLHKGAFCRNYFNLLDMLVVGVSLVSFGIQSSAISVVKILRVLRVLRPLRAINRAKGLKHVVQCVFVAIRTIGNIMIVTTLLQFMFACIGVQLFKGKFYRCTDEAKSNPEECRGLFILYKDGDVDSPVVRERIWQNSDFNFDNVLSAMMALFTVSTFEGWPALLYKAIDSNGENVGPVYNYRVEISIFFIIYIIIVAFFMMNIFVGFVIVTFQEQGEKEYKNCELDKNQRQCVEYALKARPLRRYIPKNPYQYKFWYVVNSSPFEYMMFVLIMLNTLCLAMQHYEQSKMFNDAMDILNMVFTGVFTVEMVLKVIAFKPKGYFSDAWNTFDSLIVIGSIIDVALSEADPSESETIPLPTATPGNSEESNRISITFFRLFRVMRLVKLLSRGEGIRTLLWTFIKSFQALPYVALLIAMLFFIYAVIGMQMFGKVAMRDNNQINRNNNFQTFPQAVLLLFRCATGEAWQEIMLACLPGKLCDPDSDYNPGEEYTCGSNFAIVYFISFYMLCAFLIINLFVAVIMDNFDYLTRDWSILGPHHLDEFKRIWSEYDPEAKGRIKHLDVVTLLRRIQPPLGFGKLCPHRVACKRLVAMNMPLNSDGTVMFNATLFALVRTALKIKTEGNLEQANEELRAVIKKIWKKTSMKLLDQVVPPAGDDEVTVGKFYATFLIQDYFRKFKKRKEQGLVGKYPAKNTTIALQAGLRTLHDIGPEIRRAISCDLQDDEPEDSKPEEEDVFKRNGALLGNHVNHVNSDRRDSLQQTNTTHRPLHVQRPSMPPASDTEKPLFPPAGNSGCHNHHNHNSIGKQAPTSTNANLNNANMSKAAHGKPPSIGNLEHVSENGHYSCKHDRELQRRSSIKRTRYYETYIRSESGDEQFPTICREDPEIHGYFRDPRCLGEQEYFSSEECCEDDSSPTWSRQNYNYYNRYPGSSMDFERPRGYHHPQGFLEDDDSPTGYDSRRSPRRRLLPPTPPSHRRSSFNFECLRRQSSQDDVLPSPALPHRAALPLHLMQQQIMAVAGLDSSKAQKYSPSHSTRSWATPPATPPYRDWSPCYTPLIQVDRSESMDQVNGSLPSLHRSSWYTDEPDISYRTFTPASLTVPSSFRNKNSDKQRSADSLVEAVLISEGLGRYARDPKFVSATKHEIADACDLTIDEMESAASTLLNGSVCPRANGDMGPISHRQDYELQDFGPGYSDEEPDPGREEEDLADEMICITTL
UniProt Q9Z0V1: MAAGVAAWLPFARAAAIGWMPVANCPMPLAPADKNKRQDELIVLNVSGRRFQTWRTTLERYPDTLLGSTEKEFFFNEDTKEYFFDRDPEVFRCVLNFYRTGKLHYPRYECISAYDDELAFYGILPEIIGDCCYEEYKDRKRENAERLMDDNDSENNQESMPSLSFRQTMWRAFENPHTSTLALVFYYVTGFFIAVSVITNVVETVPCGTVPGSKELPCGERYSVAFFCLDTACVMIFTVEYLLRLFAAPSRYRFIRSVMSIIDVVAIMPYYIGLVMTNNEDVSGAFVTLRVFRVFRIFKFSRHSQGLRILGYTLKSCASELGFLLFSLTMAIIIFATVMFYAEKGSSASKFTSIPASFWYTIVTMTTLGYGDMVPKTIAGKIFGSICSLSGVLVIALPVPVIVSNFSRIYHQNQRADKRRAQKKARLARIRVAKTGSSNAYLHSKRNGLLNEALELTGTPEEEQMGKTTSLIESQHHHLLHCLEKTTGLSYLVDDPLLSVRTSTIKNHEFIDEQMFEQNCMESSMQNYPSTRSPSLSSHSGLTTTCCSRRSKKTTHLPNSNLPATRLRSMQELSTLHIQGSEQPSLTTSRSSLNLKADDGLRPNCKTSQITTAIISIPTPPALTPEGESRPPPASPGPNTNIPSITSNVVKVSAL
UniProt O88444: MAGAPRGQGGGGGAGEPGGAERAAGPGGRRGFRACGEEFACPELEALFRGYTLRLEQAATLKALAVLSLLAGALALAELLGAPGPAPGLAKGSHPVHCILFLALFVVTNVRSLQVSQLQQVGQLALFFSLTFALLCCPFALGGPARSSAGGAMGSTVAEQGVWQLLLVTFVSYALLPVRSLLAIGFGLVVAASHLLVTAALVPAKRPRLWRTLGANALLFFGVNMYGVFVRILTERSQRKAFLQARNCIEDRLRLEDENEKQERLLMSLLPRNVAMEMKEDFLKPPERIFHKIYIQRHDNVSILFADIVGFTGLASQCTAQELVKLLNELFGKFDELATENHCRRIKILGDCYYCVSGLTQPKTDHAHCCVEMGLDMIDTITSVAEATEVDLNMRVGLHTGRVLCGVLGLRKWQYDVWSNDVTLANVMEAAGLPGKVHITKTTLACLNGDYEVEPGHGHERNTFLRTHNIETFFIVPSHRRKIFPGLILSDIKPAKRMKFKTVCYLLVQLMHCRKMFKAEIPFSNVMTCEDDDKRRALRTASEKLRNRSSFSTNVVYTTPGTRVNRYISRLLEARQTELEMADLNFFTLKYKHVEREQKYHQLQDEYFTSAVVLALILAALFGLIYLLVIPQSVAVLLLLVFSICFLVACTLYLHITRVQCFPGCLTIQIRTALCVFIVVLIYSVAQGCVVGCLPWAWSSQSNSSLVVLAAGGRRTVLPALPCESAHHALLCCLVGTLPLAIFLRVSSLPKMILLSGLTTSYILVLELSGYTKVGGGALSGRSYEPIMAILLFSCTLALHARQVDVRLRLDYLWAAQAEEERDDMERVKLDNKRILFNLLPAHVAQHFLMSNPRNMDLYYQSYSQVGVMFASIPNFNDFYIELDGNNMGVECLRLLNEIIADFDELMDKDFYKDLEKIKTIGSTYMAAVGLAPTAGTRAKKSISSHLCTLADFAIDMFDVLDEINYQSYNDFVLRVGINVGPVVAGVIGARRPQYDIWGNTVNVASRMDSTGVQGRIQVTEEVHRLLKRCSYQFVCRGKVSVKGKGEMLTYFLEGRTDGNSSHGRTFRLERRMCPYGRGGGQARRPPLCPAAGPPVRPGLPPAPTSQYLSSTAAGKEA

Tests used:
Experiment in all cases: affinity purification with mass spectrometry; mouse midbrain plasma-membrane-enriched fraction solubilised in CL47a; antibody-coated magnetic beads (protein A Dynabeads for Cav1.3), 2 h at 4 °C; LC-MS/MS, iBAQ, Class A/B against 11 control IPs from knock-out mice
[1] = target: Cav1.2 L-type voltage-dependent Ca2+ channel α1-subunit (mouse (endogenous in midbrain)) (UniProt Q01815)
[2] = target: Cav1.3 L-type voltage-dependent Ca2+ channel α1-subunit (mouse (endogenous in midbrain)) (UniProt Q99246)
[3] = target: SK3 calcium-activated small-conductance potassium channel (mouse (endogenous in midbrain)) (UniProt P58391)
[4] = target: T1, hyperpolarization-activated cyclic nucleotide-gated channel HCN2 (mouse (endogenous in midbrain)) (UniProt O88703)
T1 sequence: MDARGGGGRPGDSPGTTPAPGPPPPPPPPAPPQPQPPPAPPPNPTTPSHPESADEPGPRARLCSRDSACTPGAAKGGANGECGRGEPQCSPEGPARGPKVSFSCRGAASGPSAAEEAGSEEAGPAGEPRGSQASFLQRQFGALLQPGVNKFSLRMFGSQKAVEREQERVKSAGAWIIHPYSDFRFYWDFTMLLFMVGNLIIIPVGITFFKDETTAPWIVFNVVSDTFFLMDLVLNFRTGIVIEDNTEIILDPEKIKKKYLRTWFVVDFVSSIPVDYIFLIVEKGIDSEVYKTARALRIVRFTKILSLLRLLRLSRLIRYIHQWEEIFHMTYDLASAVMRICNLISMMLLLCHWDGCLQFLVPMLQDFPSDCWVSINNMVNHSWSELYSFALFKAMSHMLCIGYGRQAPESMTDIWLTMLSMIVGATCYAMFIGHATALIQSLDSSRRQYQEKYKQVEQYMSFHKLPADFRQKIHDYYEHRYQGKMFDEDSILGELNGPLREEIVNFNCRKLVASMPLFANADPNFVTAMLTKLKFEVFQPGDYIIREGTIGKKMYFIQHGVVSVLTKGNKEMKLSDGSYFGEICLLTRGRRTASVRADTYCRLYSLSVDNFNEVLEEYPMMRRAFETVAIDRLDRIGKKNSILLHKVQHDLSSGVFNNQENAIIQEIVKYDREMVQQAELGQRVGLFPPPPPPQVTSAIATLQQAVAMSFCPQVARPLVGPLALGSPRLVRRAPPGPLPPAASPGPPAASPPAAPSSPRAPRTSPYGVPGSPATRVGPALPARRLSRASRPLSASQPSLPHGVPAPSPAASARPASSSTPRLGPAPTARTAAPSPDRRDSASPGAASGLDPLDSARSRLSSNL

[5] = target: Kv4.3 A-type potassium channel (mouse (endogenous in midbrain)) (UniProt Q9Z0V1)

Molecule: voltage-dependent calcium channel auxiliary subunit α2δ2 (from UniProt Q6PHS9 19-1154)
binding [1]: binds

Molecule: adenylate cyclase 1 (from UniProt O88444 1-1118)
binding [1]: binds

Molecule: voltage-dependent calcium channel auxiliary subunit β1 (from UniProt Q8R3Z5 1-597)
binding [1]: binds

Molecule: Kv4.3 channel auxiliary subunit Dpp10 (from UniProt Q6NXK7 1-797)
binding [5]: binds

Molecule: hyperpolarization-activated cyclic nucleotide-gated channel HCN4 (from UniProt O70507 1-1201)
binding [2]: binds | binding [4]: binds

B2: G-protein-activated inward rectifier potassium channel 2 (protein, UniProt P48542 1-425)
chain: MTMAKLTESMTNVLEGDSMDQDVESPVAIHQPKLPKQARDDLPRHISRDRTKRKIQRYVRKDGKCNVHHGNVRETYRYLTDIFTTLVDLKWRFNLLIFVMVYTVTWLFFGMIWWLIAYIRGDMDHIEDPSWTPCVTNLNGFVSAFLFSIETETTIGYGYRVITDKCPEGIILLLIQSVLGSIVNAFMVGCMFVKISQPKKRAETLVFSTHAVISMRDGKLCLMFRVGDLRNSHIVEASIRAKLIKSKQTSEGEFIPLNQSDINVGYYTGDDRLFLVSPLIISHEINQQSPFWEISKAQLPKEELEIVVILEGIVEATGMTCQARSSYITSEILWGYRFTPVLTMEDGFYEVDYNSFHETYETSTPSLSAKELAELANRAEVPLSWSVSSKLNQHAELETEEEEKNPEELTERNGDVANLENESKV
binding [1]: binds

B4: hyperpolarization-activated cyclic nucleotide-gated channel HCN3 (protein, UniProt O88705 1-779)
chain: MEEEARPAAGAGEAATPARETPPAAPAQARAASGGVPESAPEPKRRQLGTLLQPTVNKFSLRVFGSHKAVEIEQERVKSAGAWIIHPYSDFRFYWDLIMLLLMVGNLIVLPVGITFFKEENSPPWIVFNVLSDTFFLLDLVLNFRTGIVVEEGAEILLAPRAIRTRYLRTWFLVDLISSIPVDYIFLVVELEPRLDAEVYKTARALRIVRFTKILSLLRLLRLSRLIRYIHQWEEIFHMTYDLASAVVRIFNLIGMMLLLCHWDGCLQFLVPMLQDFPSDCWVSMNRMVNHSWGRQYSHALFKAMSHMLCIGYGQQAPVGMPDVWLTMLSMIVGATCYAMFIGHATALIQSLDSSRRQYQEKYKQVEQYMSFHKLPADTRQRIHEYYEHRYQGKMFDEESILGELSEPLREEIINFTCRGLVAHMPLFAHADPSFVTAVLTKLRFEVFQPGDLVVREGSVGRKMYFIQHGLLSVLARGARDTRLTDGSYFGEICLLTRGRRTASVRADTYCRLYSLSVDHFNAVLEEFPMMRRAFETVAMDRLRRIGKKNSILQRKRSEPSPGSSGGVMEQHLVQHDRDMARGVRGLAPGTGARLSGKPVLWEPLVHAPLQAAAVTSNVAIALTHQRGPLPLSPDSPATLLARSARRSAGSPASPLVPVRAGPLLARGPWASTSRLPAPPARTLHASLSRTGRSQVSLLGPPPGGGARRLGPRGRPLSASQPSLPQRATGDGSPRRKGSGSERLPPSGLLAKPPGTVQPPRSSVPEPVTPRGPQISANM
binding [4]: binds

B6: G-protein-activated inward rectifier potassium channel 1 (protein, UniProt P63250 1-501)
chain: MSALRRKFGDDYQVVTTSSSGSGLQPQGPGQGPQQQLVPKKKRQRFVDKNGRCNVQHGNLGSETSRYLSDLFTTLVDLKWRWNLFIFILTYTVAWLFMASMWWVIAYTRGDLNKAHVGNYTPCVANVYNFPSAFLFFIETEATIGYGYRYITDKCPEGIILFLFQSILGSIVDAFLIGCMFIKMSQPKKRAETLMFSEHAVISMRDGKLTLMFRVGNLRNSHMVSAQIRCKLLKSRQTPEGEFLPLDQLELDVGFSTGADQLFLVSPLTICHVIDAKSPFYDLSQRSMQTEQFEVVVILEGIVETTGMTCQARTSYTEDEVLWGHRFFPVISLEEGFFKVDYSQFHATFEVPTPPYSVKEQEEMLLMSSPLIAPAITNSKERHNSVECLDGLDDISTKLPSKLQKITGREDFPKKLLRMSSTTSEKAYSLGDLPMKLQRISSVPGNSEEKLVSKTTKMLSDPMSQSVADLPPKLQKMAGGPTRMEGNLPAKLRKMNSDRFT
binding [1]: binds

Continued, values first:

binding [2]: no binding | binding [3]: binds
Molecule: voltage-dependent calcium channel auxiliary subunit α2δ1 (from UniProt O08532 25-1103)

binding [2]: binds | binding [4]: binds
Molecule: Pex5-related protein Pex5r (from UniProt Q8C437 1-567)

binding [5]: binds
Molecule: Kv4.3 channel auxiliary subunit Dpp6 (from UniProt Q9Z218 1-804)

binding [2]: binds
B1: Rab-interacting molecule-binding protein Rimbp2 (protein, UniProt Q80U40 1-1072)
chain: MREAAERRQQLELEHEQALAFLNAKQQEIQLLQQAQVEAKKEHEGAVQLLESKVRELEEKCRVQSEQFNLLSRDLEKFRQHTGSIDLLGSSSVALLDVPLAPGKPFPQYMNGLATSIHKGHEGPTGHYSVIGDYIPLSGDKLESPCVKPSFLLRSSSPRCRFESEMDNDRNSNNSKQSSSGKVHLCVARYSYNPFDGPNENPEAELPLTAGKYLYVYGDMDEDGFYEGELLDGQRGLVPSNFVDFIQDNESRLAGTLGSEQDQNFLNHSGISLERDSILHLHSPTQVDSGITDNGGGTLDVNIDDIGEDTVPYPRKITLIKQLAKSVIVGWEPPAVPPGWGTVSSYNVLVDKETRMSLALGRRTKALIEKLNTAACTYRISVQCVTSRGNSDELQCTLLVGKDVVVAPSQLRVDNITQISAQLSWLPTNSNYSHIIFLNEEELDIVKAARYKYQFFNLRPNMAYKVKVLAQPHQMPWQLPLEQREKKEACVEFSTLPAGPPAPPQDVTVHAGATAASVQVSWKPPALTPTGLSNGANVTGYGVYAKGQRVAEVIAPTADGTAVELIRLRSLEAKAVSVRTLSVQGESMDSALAAIPPDLLVPPAPHPRTAPPPKPLASDMDTKDQHLGPHVKVDESWEQSRSPGPAHGHMLEPPDMHSAGPGRRSPSPSRILPQPQGAPVSTTVAKAMAREAAQRVAESNRLEKRSLFLEQSSAGQYTNSDEEDGYASPEVKRRGTSVDDFLKGSELGKQPHCCHGDEYHTESSRGSDLSDIMEEDEEELYSEMQLEDGGRRRPSGTSHNALKILGNSTLMGRADRMEHVSRRYSHSGGGSHRHRPAMAPSIDEYTGRDHLSPDFYDESETDPGAEELPARIFVALFDYDPLTMSPNPDAAEEELPFKEGQIIKVYGDKDADGFYRGETCARLGLIPCNMVSEIHADDEEMMDQLLRQGFLPLNTPVEKIERSRRSGRGHSVPTRRMVALYDYDPRESSPNVDVEAELPFCTGDIITVFGEIDEDGFYYGELNGQKGLVPSNFLEEVPDDVEVHLSDAPPHYSHDPPMRSKAKRKKSVHFTP

binding [5]: binds
B3: Kv4.3 channel auxiliary subunit Kchip 4 (protein, UniProt Q6PHZ8 1-250)
chain: MNVRRVESISAQLEEASSTGGFLYAQNNTKRSIKERLMKLLPCSAAKTSSPAIQNSVEDELEMATVRHRPEALELLEAQSKFTKKELQILYRGFKNECPSGVVNEETFKEIYSQFFPQGDSTTYAHFLFNAFDTDHNGAVSFEDFIKGLSILLRGTVQEKLNWAFNLYDINKDGYITKEEMLDIMKAIYDMMGKCTYPVLKEDAPRQHVETFFQKMDKNKDGVVTIDEFIESCQKDENIMRSMQLFENVI

binding [5]: binds
B5: Kv4.2 channel (protein, UniProt Q9Z0V2 1-630)
chain: MAAGVAAWLPFARAAAIGWMPVASGPMPAPPRQERKRTQDALIVLNVSGTRFQTWQDTLERYPDTLLGSSERDFFYHPETQQYFFDRDPDIFRHILNFYRTGKLHYPRHECISAYDEELAFFGLIPEIIGDCCYEEYKDRRRENAERLQDDADTDNTGESALPTMTARQRVWRAFENPHTSTMALVFYYVTGFFIAVSVIANVVETVPCGSSPGHIKELPCGERYAVAFFCLDTACVMIFTVEYLLRLAAAPSRYRFVRSVMSIIDVVAILPYYIGLVMTDNEDVSGAFVTLRVFRVFRIFKFSRHSQGLRILGYTLKSCASELGFLLFSLTMAIIIFATVMFYAEKGSSASKFTSIPAAFWYTIVTMTTLGYGDMVPKTIAGKIFGSICSLSGVLVIALPVPVIVSNFSRIYHQNQRADKRRAQKKARLARIRAAKSGSANAYMQSKRNGLLSNQLQSSEDEPAFISKSGSSFETQHHHLLHCLEKTTNHEFVDEQVFEESCMEVATVNRPSSHSPSLSSQQGVTSTCCSRRHKKTFRIPNANVSGSHRGSVQELSTIQIRCVERTPLSNSRSSLNAKMEECVKLNCEQPYVTTAIISIPTPPVTTPEGDDRPESPEYSGGNIVRVSAL

No constants are given. Whether binding was seen depends on the method and setting. In cells and extracts the contact can be indirect. A yes stands for co-enrichment or nearness to the bait. Other partners may have been found. For some assays here: No binding means not detected with the bait. For some assays here: Sequences can lack the tags named with a protein. Each block holds one molecule with its values, some of them ahead of it.
